For three molecules, binding results are on record in article doi:10.1101/2021.05.23.445298.

By UniProt entry, the sequences of proteins in these tests, tags left out. Residues count along the entry.
UniProt P21513, whole entry: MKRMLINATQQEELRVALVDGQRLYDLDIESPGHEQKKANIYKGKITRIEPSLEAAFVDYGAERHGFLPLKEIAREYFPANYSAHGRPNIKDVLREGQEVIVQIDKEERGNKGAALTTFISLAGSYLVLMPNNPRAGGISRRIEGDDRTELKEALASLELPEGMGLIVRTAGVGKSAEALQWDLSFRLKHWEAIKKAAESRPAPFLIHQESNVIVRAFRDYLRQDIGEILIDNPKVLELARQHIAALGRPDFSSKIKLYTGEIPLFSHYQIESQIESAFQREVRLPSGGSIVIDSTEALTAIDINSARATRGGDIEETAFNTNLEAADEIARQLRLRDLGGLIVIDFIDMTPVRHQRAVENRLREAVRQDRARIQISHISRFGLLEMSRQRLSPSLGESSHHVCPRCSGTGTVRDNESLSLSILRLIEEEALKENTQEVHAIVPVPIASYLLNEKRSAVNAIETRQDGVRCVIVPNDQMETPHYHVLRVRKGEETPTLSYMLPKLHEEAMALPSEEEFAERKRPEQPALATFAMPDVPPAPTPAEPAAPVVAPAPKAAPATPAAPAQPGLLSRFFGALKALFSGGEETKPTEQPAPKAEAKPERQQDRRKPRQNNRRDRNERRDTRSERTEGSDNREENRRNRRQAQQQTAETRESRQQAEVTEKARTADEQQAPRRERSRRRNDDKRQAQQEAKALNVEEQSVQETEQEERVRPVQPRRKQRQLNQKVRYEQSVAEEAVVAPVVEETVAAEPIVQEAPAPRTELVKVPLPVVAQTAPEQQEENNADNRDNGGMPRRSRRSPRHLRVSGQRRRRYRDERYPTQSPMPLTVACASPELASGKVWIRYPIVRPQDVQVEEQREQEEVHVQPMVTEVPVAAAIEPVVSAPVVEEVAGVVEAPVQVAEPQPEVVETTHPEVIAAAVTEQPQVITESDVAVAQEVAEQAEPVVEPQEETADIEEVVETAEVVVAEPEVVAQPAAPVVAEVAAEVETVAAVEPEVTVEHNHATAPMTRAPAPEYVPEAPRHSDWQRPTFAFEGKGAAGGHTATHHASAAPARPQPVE
UniProt P21513, 1-850: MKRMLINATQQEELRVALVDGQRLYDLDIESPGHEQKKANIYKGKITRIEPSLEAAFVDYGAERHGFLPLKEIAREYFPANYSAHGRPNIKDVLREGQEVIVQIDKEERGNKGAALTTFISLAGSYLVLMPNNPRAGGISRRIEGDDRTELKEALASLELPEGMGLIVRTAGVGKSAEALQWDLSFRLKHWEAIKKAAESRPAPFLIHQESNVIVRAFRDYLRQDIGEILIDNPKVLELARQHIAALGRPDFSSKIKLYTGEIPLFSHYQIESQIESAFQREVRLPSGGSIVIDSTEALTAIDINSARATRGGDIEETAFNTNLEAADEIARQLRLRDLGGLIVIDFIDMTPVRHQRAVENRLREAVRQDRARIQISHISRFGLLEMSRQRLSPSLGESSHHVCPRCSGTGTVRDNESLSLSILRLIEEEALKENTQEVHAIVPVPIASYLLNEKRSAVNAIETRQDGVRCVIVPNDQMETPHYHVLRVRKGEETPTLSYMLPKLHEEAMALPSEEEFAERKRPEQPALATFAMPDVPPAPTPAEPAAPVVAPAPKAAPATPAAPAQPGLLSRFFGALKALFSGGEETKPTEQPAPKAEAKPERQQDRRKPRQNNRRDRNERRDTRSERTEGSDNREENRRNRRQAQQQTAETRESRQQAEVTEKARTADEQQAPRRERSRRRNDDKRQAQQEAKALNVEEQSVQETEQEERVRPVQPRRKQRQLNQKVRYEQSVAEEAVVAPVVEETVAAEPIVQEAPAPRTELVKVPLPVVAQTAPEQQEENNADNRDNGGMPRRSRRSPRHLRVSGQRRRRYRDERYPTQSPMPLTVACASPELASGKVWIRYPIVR
UniProt P0A6P9, whole entry: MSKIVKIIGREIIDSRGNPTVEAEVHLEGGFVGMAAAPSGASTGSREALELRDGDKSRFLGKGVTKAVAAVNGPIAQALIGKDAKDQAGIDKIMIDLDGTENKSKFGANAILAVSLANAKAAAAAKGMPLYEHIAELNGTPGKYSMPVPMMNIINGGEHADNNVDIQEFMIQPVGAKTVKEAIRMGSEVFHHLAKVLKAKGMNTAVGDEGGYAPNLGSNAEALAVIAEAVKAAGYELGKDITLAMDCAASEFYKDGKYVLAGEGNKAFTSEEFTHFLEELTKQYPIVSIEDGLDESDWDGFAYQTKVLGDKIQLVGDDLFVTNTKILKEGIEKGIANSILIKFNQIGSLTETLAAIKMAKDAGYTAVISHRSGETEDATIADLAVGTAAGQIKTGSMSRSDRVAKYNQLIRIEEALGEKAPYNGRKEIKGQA

Assay in all cases: co-purification
Test [1] deals with RNase E 1-1061, chromosomally strep-tagged (Escherichia coli (endogenous in NCM3416)) (UniProt P21513).
For test [2], the target named is RNase E 1-850 (Escherichia coli) (UniProt P21513).
Test [3] has as its target RNase E 1-1061, chromosomally strep-tagged (Escherichia coli (endogenous in NCM3416)) (UniProt P21513). This is another data set of the same source.

Like-named read-outs stand apart in the source and are kept apart here. These are yes or no findings as the source states them, for the method shown. Some results given as binding are weak or reduced against the parent protein; the word gives no strength.

Consider “enolase (endogenous, full degradosome) (from UniProt P0A6P9 1-432) (enzyme)”, for which the binding result in test [1] is on record as “binds”.

Regarding “enolase (full-length, recombinant) (from UniProt P0A6P9 1-432) (enzyme)”, the binding entry in test [2] is reported as “binds”.

B1: PNPase (endogenous, full degradosome) (enzyme, UniProt P05055 1-711)
chain: MLNPIVRKFQYGQHTVTLETGMMARQATAAVMVSMDDTAVFVTVVGQKKAKPGQDFFPLTVNYQERTYAAGRIPGSFFRREGRPSEGETLIARLIDRPIRPLFPEGFVNEVQVIATVVSVNPQVNPDIVAMIGASAALSLSGIPFNGPIGAARVGYINDQYVLNPTQDELKESKLDLVVAGTEAAVLMVESEAQLLSEDQMLGAVVFGHEQQQVVIQNINELVKEAGKPRWDWQPEPVNEALNARVAALAEARLSDAYRITDKQERYAQVDVIKSETIATLLAEDETLDENELGEILHAIEKNVVRSRVLAGEPRIDGREKDMIRGLDVRTGVLPRTHGSALFTRGETQALVTATLGTARDAQVLDELMGERTDTFLFHYNFPPYSVGETGMVGSPKRREIGHGRLAKRGVLAVMPDMDKFPYTVRVVSEITESNGSSSMASVCGASLALMDAGVPIKAAVAGIAMGLVKEGDNYVVLSDILGDEDHLGDMDFKVAGSRDGISALQMDIKIEGITKEIMQVALNQAKGARLHILGVMEQAINAPRGDISEFAPRIHTIKINPDKIKDVIGKGGSVIRALTEETGTTIEIEDDGTVKIAATDGEKAKHAIRRIEEITAEIEVGRVYTGKVTRIVDFGAFVAIGGGKEGLVHISQIADKRVEKVTDYLQMGQEVPVKVLEVDRQGRIRLSIKEATEQSQPAAAPEAPAAEQGE
Take B1: the binding entry in test [3] was “binds”.
